Experimental data taken from publication PMC3479024.

By UniProt entry, the sequences of proteins in these tests, tags left out. Where a name states a change or a piece, a line headed by the entry shows the natural chain unless it says otherwise.
UniProt Q07817: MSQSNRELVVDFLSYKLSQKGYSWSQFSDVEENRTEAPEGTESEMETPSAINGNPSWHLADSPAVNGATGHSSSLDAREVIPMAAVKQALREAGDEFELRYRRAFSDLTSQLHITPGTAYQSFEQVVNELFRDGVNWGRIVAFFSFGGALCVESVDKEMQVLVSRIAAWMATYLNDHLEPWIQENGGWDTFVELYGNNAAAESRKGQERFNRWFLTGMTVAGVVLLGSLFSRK
UniProt Q99497: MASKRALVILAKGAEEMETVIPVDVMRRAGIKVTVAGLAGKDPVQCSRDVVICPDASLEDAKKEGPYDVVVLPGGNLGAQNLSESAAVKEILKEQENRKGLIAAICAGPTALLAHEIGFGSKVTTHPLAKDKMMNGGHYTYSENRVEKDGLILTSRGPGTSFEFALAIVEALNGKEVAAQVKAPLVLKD

What was measured:
GST-Bcl-XL (human) = GST-Bcl-XL (human) (UniProt Q07817); assay: pull-down; competitive binding: supernatant with 50 μg His-Bax or Bcl2 incubated with 20 μg GST or GST-Bcl-XL on glutathione-agarose beads, washed, then incubated with various amounts of His-DJ-1(L166P) supernatant; immunoblot; only the target purified
GST-DJ-1 (human) = GST-DJ-1 (human) (UniProt Q99497); assay: pull-down; 20 μg GST, GST-DJ-1 or GST-DJ-1(L166P) on glutathione-agarose beads; supernatant of E. coli crude extract with 50 μg recombinant Bcl-XL; 2 hours at 4°C; washed with HNTG buffer (20 mM Hepes-KOH pH 7.5, 100 mM NaCl, 0.1% Triton X-100, 10% glycerol); immunoblot; only the target purified
GST-DJ-1(L166P) (human) = GST-DJ-1(L166P) (human) (UniProt Q99497); assay: as above

| Substance | binding (GST-Bcl-XL (human)) | binding (GST-DJ-1 (human)) | binding (GST-DJ-1(L166P) (human)) |
| --- | --- | --- | --- |
| His-DJ-1(L166P) (from UniProt Q99497 1-189) | binds | – | – |
| recombinant Bcl-XL (from UniProt Q07817-1) | – | binds | binds |

No constants are given. Whether binding was seen depends on the method and setting. In cells and extracts the contact can be indirect. Binding calls can cover weak binding; strength is not graded here.
